Results: the supplement of paper PMC10849652
The list shows a part of the results.

The chains behind the UniProt entries cited, without tags or fusion partners. Where a name states a change or a piece, a line headed by the entry shows the natural chain unless it says otherwise.
UniProt Q9UK23: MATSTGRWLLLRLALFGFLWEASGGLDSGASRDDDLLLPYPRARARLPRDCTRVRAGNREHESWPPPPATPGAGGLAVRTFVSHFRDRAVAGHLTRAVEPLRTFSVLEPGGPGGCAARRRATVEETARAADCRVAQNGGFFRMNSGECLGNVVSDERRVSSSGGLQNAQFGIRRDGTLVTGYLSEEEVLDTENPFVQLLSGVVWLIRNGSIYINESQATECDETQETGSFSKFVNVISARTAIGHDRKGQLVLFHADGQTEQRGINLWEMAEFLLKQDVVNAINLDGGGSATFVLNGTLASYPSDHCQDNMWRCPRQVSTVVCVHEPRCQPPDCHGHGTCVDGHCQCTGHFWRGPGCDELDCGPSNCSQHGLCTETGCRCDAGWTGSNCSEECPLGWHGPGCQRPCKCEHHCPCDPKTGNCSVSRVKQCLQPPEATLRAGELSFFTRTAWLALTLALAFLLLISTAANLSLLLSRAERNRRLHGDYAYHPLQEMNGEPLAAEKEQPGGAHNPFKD
UniProt O95544: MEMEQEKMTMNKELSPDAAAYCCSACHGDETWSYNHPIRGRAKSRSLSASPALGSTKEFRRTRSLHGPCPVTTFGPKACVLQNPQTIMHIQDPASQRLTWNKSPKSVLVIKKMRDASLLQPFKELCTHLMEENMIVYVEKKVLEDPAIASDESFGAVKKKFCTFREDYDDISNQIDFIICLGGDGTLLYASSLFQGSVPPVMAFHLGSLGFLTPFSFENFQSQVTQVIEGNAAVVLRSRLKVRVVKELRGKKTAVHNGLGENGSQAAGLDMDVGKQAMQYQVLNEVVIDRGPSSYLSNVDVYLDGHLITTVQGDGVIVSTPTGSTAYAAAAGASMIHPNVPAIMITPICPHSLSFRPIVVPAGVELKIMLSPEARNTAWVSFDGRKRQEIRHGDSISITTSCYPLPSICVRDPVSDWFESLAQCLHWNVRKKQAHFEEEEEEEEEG
UniProt P84157: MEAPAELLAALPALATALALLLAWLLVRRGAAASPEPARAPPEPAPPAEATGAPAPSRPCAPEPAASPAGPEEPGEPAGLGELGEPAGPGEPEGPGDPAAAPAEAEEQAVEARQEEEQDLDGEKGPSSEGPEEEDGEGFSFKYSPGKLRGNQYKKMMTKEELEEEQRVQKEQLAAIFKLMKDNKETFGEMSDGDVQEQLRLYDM
UniProt Q9BRA0: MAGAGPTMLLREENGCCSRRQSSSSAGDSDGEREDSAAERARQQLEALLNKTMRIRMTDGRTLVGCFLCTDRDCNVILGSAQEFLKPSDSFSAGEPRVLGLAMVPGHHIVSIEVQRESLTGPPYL
UniProt B2RTY4: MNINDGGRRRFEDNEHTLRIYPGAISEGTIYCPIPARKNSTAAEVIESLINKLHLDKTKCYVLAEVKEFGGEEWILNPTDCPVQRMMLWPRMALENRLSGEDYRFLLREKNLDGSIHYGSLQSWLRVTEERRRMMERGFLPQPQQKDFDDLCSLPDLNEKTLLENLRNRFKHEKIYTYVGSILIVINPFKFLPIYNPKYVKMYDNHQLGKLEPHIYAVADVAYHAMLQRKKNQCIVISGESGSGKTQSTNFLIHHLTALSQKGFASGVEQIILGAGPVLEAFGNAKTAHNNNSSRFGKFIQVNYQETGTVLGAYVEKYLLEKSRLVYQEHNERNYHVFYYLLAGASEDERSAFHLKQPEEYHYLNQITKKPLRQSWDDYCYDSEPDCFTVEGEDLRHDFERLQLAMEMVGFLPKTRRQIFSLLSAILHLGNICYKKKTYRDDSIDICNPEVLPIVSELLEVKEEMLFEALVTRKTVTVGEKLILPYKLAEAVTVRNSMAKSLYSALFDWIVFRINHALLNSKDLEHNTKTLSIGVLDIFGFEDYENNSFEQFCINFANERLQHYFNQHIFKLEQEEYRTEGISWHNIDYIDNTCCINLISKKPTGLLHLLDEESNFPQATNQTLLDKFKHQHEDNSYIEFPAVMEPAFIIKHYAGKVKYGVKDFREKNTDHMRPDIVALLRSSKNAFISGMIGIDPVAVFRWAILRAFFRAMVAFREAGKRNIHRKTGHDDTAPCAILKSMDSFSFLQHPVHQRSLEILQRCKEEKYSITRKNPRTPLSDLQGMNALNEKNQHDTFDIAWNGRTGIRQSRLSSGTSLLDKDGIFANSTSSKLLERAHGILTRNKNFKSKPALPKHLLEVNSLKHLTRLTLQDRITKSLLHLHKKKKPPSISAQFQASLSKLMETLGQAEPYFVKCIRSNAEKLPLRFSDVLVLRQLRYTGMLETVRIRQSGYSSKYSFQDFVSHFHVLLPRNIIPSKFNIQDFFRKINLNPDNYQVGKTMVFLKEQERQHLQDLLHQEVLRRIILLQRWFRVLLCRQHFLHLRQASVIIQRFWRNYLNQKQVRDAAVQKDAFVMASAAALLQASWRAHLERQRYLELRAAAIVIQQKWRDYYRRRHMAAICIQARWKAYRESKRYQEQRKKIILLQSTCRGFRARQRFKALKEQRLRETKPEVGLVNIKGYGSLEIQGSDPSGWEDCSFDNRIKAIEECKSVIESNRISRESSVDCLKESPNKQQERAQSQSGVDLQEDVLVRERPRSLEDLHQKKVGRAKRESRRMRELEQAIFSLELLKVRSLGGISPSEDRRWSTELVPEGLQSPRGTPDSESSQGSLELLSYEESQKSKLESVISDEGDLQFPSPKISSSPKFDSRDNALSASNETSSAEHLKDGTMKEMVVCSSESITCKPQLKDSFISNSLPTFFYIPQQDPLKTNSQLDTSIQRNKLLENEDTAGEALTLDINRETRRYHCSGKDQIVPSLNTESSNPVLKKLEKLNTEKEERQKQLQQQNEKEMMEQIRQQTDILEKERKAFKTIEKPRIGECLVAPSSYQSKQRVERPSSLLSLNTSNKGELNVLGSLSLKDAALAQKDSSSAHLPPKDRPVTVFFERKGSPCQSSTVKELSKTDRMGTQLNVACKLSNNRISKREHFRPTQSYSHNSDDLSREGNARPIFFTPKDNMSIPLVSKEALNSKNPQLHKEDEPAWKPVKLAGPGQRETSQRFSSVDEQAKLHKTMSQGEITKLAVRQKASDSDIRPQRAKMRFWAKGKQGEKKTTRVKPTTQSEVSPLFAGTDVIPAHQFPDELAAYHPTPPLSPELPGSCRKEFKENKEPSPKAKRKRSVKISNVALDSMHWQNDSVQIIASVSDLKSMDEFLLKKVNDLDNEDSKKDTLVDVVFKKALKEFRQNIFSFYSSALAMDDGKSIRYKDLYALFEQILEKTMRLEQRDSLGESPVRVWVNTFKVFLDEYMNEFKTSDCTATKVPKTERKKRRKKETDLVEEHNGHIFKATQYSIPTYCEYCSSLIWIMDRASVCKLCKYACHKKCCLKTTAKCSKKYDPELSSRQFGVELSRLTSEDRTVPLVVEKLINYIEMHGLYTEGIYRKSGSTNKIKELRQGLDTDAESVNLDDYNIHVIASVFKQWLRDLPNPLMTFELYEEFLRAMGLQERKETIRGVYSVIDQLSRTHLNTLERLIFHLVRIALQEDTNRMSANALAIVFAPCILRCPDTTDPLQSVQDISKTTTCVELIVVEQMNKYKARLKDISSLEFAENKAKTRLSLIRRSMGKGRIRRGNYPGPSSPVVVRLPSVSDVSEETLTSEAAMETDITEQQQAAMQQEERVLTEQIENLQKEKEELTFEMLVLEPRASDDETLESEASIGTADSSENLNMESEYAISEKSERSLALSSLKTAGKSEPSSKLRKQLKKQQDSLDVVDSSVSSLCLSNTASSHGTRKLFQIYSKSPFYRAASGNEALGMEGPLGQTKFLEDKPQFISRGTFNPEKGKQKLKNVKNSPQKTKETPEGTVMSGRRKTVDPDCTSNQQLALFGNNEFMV
UniProt P10244: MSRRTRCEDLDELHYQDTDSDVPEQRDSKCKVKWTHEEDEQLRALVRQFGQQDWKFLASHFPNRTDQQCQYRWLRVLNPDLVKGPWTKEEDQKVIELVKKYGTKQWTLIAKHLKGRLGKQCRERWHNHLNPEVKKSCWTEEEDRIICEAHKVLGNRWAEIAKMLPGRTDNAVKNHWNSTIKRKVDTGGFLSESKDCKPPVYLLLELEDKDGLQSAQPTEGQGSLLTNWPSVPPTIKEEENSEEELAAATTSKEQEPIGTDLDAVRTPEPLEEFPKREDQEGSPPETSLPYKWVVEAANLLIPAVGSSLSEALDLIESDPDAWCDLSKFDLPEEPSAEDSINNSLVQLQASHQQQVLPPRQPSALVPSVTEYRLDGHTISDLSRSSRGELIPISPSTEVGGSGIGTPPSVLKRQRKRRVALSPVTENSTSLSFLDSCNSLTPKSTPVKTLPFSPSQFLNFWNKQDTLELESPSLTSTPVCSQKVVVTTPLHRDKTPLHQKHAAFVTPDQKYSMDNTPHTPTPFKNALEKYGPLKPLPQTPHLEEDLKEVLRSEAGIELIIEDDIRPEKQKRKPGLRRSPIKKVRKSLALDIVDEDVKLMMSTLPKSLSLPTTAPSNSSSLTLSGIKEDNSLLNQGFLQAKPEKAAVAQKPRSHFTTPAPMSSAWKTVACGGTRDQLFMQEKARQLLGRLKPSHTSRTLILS
UniProt Q02083: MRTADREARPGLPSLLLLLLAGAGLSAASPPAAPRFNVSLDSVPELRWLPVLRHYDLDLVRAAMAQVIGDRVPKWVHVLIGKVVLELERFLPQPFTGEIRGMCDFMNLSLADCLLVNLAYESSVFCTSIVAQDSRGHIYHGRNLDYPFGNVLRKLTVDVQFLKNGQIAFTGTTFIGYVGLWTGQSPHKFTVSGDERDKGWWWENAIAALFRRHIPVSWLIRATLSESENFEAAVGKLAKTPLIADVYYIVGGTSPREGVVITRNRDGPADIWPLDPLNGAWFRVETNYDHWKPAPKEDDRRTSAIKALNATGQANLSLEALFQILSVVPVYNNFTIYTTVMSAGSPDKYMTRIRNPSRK
UniProt Q96NY9: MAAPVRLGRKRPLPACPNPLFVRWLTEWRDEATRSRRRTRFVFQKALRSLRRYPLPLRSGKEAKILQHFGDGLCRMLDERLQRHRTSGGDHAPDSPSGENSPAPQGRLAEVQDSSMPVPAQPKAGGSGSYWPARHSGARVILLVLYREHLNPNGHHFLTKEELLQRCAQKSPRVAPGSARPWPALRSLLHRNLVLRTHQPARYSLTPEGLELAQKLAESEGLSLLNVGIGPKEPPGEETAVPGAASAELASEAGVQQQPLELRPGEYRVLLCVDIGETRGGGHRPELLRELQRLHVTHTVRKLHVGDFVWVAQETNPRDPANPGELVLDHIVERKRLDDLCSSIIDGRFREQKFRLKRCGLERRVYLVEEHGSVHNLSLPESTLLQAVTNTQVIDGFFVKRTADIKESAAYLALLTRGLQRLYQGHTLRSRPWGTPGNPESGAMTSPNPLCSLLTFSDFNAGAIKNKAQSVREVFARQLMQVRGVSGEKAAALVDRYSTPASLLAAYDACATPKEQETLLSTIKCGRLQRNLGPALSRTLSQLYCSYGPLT
UniProt Q32MK0: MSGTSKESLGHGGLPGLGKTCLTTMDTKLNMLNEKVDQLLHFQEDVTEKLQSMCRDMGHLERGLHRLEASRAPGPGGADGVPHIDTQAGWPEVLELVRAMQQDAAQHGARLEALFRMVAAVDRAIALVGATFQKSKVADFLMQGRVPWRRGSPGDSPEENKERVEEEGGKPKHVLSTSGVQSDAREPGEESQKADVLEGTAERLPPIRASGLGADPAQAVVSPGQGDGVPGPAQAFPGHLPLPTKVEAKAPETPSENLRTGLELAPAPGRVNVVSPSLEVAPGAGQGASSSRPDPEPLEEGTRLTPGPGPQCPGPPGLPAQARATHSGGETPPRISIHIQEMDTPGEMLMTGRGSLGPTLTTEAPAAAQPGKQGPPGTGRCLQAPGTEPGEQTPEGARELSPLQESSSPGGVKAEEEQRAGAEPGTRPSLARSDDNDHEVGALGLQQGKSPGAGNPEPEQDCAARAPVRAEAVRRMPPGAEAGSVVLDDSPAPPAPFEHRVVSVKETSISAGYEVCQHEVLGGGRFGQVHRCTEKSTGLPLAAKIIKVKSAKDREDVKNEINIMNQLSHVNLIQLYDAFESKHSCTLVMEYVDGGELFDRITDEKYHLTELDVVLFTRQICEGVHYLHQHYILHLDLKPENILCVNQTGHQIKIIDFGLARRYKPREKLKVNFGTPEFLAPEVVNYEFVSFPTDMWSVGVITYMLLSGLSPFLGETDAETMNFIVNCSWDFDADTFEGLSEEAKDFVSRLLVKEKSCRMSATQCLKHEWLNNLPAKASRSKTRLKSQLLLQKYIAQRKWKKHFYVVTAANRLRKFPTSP

Tests used:
Test in all cases: log2 fold change, soluble protein after heating vs DMSO (PISA); higher = thermal stabilisation; K562 lysate, 10 uM; active = over 0.2 and 3.5 SD of the protein, either way, in both replicates (recomputed)
vemurafenib = compound: CCCS(=O)(=O)Nc1ccc(F)c(C(=O)c2c[nH]c3ncc(-c4ccc(Cl)cc4)cc23)c1F [vemurafenib]
In short: (§1)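 Soluble protein was defined as the supernatant remaining after 21,000xg for 90 min, following pooling of heated aliquots and adjustment to 0.5% NP-40 at 4°C. Before that, crude K562 extract at 1 mg/mL protein in PBS pH 7.4 with 1 mM MgCl2 was treated with 10 μM compound for 30 min and heated for 3 min across 48°C-58°C. Quantification used TMTpro 16plex LC-MS/MS with channel sums equalised, and values are log-two fold changes in thermal stability relative to solvent controls from duplicates.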

[1] = compound: CCCS(=O)(=O)Nc1ccc(F)c(C(=O)c2c[nH]c3ncc(Cl)cc23)c1F
In short: as §1

barasertib = compound: CCN(CCCOc1ccc2c(Nc3cc(CC(=O)Nc4cccc(F)c4)[nH]n3)ncnc2c1)CCOP(=O)(O)O [barasertib]
In short: as §1

volasertib = compound: CC[C@@H]1C(=O)N(C)c2cnc(Nc3ccc(C(=O)N[C@H]4CC[C@H](N5CCN(CC6CC6)CC5)CC4)cc3OC)nc2N1C(C)C [volasertib]
In short: as §1

[2] = compound: CCn1cc(-c2ccnc3[nH]c(-c4cccc(CN(C)C)c4)cc23)c(-c2ccc(NC(=O)N(C)C)cc2)n1
In short: as §1

[3] = compound: CN1CCC(CNc2ccc3ncc(-c4cccc(OC(F)(F)F)c4)n3n2)CC1
In short: as §1

saracatinib = compound: CN1CCN(CCOc2cc(OC3CCOCC3)c3c(Nc4c(Cl)ccc5c4OCO5)ncnc3c2)CC1 [saracatinib]
In short: as §1

alvocidib = compound: CN1CC[C@H](c2c(O)cc(O)c3c(=O)cc(-c4ccccc4Cl)oc23)[C@H](O)C1 [alvocidib]
In short: as §1

[4] = compound: CNC(=O)C1=CC=CC=C1NC2=NC(=NC=C2Cl)NC3=C(C=C(C=C3)N4CCOCC4)OC
In short: as §1

defactinib = compound: CNC(=O)c1ccc(Nc2ncc(C(F)(F)F)c(NCc3nccnc3N(C)S(C)(=O)=O)n2)cc1 [defactinib]
In short: as §1

[5] = compound: CNc1nc(-c2ccc3c(N)n[nH]c3c2)cc(N2C[C@@H](C(=O)NC3CCCCC3)CC[C@H]2C)n1
In short: as §1

alisertib = compound: COc1cc(Nc2ncc3c(n2)-c2ccc(Cl)cc2C(c2c(F)cccc2OC)=NC3)ccc1C(=O)O [alisertib]
In short: as §1

[6] = compound: COc1cc2nc(-c3cc(F)ccc3O)nc(N[C@@H]3CNC[C@H]3C(C)(C)O)c2cc1OC
In short: as §1

gefitinib = compound: COc1cc2ncnc(Nc3ccc(F)c(Cl)c3)c2cc1OCCCN1CCOCC1 [gefitinib]
In short: as §1

[7] = compound: CC[C@@H]1C(=O)N(C)c2cnc(Nc3ccc(C(=O)NC4CCN(C)CC4)cc3OC)nc2N1C1CCCC1
In short: as §1

[8] = compound: CCn1c(C(=O)N(C2CC2)C2CC2)cc2c3c(ncn3C)c(Nc3cc(C)n(C)n3)nc21
In short: as §1

sotrastaurin = compound: CN1CCN(c2nc(C3=C(c4c[nH]c5ccccc45)C(=O)NC3=O)c3ccccc3n2)CC1 [sotrastaurin]
In short: as §1

Tubastatin A = compound: CN1CCc2c(c3ccccc3n2Cc2ccc(C(=O)NO)cc2)C1 [Tubastatin A]
In short: as §1

encorafenib = compound: COC(=O)N[C@@H](C)CNc1nccc(-c2cn(C(C)C)nc2-c2cc(Cl)cc(NS(C)(=O)=O)c2F)n1 [encorafenib]
In short: as §1

[9] = compound: COC(=O)[C@H](CCSC)NC(=O)C1=C(C=C(C=C1)NC[C@H](CS)N)C2=CC=CC=C2
In short: as §1

Measured: log2 fold change

NAGPA (UniProt Q9UK23)
inactive: vemurafenib -0.018 | [1] 0.101 | barasertib 0.038 | volasertib 0.003 | [2] 0.188 | [3] -0.034 | saracatinib -0.11 | alvocidib 0.127 | [4] 0.027 | defactinib -0.095 | [5] 0 | alisertib 0.031 | [6] 0.156 | gefitinib -0.162

NADK (UniProt O95544)
inactive: vemurafenib -0.018 | [1] -0.002 | barasertib 0.056 | [7] 0.017 | volasertib 0.012 | [8] 0.002 | [2] -0.002 | [3] 0.047 | saracatinib 0.019 | sotrastaurin -0.019 | alvocidib -0.003 | Tubastatin A -0.022 | [4] 0.056 | defactinib 0.015 | [5] 0.025 | encorafenib -0.008 | [9] -0.02 | alisertib -0.004 | [6] 0 | gefitinib -0.034

MXRA7 (UniProt P84157)
inactive: vemurafenib -0.134 | [1] 0.094 | [7] -0.006 | volasertib 0.054 | [8] 0.049 | [2] -0.182 | [3] 0.167 | saracatinib 0.02 | sotrastaurin -0.064 | alvocidib -0.002 | Tubastatin A -0.056 | [4] -0.052 | defactinib -0.239 | [5] 0.131 | encorafenib 0.051 | [9] -0.028 | alisertib -0.19 | [6] -0.009 | gefitinib 0.177

NAA38 isoform 2 (UniProt Q9BRA0)
active: [2] -0.461
inactive: vemurafenib 0.049 | [1] 0.014 | barasertib 0.09 | [7] -0.012 | volasertib 0.025 | [8] 0.04 | [3] 0.201 | saracatinib 0.042 | sotrastaurin -0.079 | alvocidib -0.143 | Tubastatin A -0.005 | [4] 0.01 | defactinib 0.013 | [5] 0.03 | encorafenib -0.022 | [9] 0.001 | alisertib 0.05 | [6] 0.022 | gefitinib -0.017

MYO9A isoform 4 (UniProt B2RTY4)
inactive: [1] 0.023 | barasertib 0.053 | volasertib -0.028 | [8] -0.019 | [2] -0.021 | [3] 0.002 | saracatinib -0.068 | sotrastaurin 0.093 | alvocidib 0.034 | Tubastatin A -0.077 | [4] -0.013 | defactinib -0.026 | [5] 0.015 | alisertib -0.035 | [6] 0.04 | gefitinib 0.009
active: vemurafenib 0.248

NBEAL2 (UniProt Q6ZNJ1)
inactive: vemurafenib -0.047 | [1] 0.021 | barasertib 0.045 | [7] -0.053 | volasertib -0.128 | [8] 0.01 | [2] 0.013 | [3] -0.037 | saracatinib 0.013 | sotrastaurin 0 | alvocidib 0.031 | Tubastatin A -0.141 | [4] -0.005 | defactinib 0.022 | [5] 0.033 | encorafenib 0.003 | [9] -0.029 | alisertib -0.053 | [6] -0.009 | gefitinib 0.01

MYBL2 (UniProt P10244)
inactive: vemurafenib -0.07 | [7] 0.013 | [8] 0.069 | [2] 0.217 | [3] -0.296 | saracatinib 0.057 | sotrastaurin 0.043 | alvocidib 0 | Tubastatin A -0.15 | [4] 0.045 | defactinib 0.113 | [5] -0.016 | encorafenib 0.088 | [9] -0.023

MYO18B isoform 3 (UniProt Q8IUG5)
inactive: vemurafenib -0.058 | [1] -0.057 | barasertib 0.003 | [7] -0.155 | volasertib -0.066 | saracatinib -0.002 | sotrastaurin -0.059 | [4] 0.19 | defactinib -0.022 | [5] -0.001 | encorafenib 0.028 | [9] 0.057 | [6] 0.034

NAAA (UniProt Q02083)
inactive: vemurafenib 0.013 | [1] 0.076 | barasertib -0.057 | [7] -0.03 | volasertib -0.24 | [8] -0.01 | [2] -0.07 | [3] 0.095 | saracatinib 0.094 | sotrastaurin -0.015 | alvocidib -0.003 | Tubastatin A 0.062 | [4] -0.019 | defactinib 0.033 | [5] 0.044 | encorafenib 0.002 | [9] 0.053 | alisertib 0.029 | [6] -0.104 | gefitinib -0.044

NBR1 (UniProt Q14596)
inactive: vemurafenib -0.033 | [1] 0.025 | barasertib 0.003 | [7] -0.158 | volasertib 0.064 | [8] 0.054 | [2] 0.225 | [3] -0.041 | saracatinib 0.076 | sotrastaurin 0.071 | alvocidib 0.081 | Tubastatin A -0.066 | [4] 0.133 | defactinib 0.011 | [5] -0.034 | encorafenib 0.106 | [9] -0.167 | [6] -0.039

NCOA1 isoform 2 (UniProt Q15788)
inactive: vemurafenib 0.048 | [1] -0.123 | volasertib -0.061 | [2] 0.039 | [3] -0.1 | saracatinib 0.032 | alvocidib -0.041 | [4] 0.052 | defactinib 0.084 | [5] 0.02 | [6] 0.453

N4BP2 (UniProt Q86UW6)
active: [2] -0.336
inactive: vemurafenib -0.001 | [1] 0.052 | barasertib -0.018 | [7] 0.029 | volasertib -0.014 | [8] 0 | [3] 0.029 | saracatinib 0.018 | sotrastaurin 0.05 | alvocidib 0.063 | Tubastatin A -0.17 | [4] 0.052 | defactinib 0.021 | [5] -0.004 | encorafenib 0.06 | [9] 0.003 | alisertib 0.016 | [6] 0 | gefitinib -0.005

MUS81 (UniProt Q96NY9)
inactive: [1] -0.155 | barasertib -0.087 | volasertib 0.027 | [8] 0.117 | [2] -0.199 | [3] 0.083 | saracatinib 0.03 | sotrastaurin 0 | alvocidib 0.014 | Tubastatin A -0.469 | [4] 0.034 | [5] 0.066 | alisertib 0.043 | [6] 0.116 | gefitinib -0.025

MYLK3 (UniProt Q32MK0)
inactive: [1] 0.047 | barasertib 0.017 | [7] 0.029 | volasertib -0.071 | [8] -0.163 | [2] 0.39 | [3] 0 | sotrastaurin 0.032 | alvocidib 0.306 | Tubastatin A 0.039 | [4] -0.048 | encorafenib -0.003 | [9] 0.328 | alisertib -0.014 | [6] -0.136 | gefitinib 0.045
